Results from patent publication US20040204466A1, “Treatment of bronchial asthma using 5-HT3 receptor antagonists” (Orchid Chemicals and Pharmaceuticals Ltd., priority 2003, published 2004).
At least one compound was matched to its structure with a doubt left.

Tested on: ovalbumin sensitized and challenged mice
Assay: Ova-specific airway resistance of early and late allergic response to antigen challenge
Assay type: in vivo, female Balb/c mice
Settings: FIGS. 3 and 4
Method: Four to five-week old female Balb/c mice (Harlan Laboratories, Indianapolis, Ind.) were housed according to the NIH guidelines and were allowed constant access to food and water. Intraperitoneal injections of 6 μg of grade V chicken egg ovalbumin (Ova; Sigma-Aldrich, St. Louis, Mo.) adsorbed to 2.25 mg Imject Alum (Pierce, Rockford, Ill.) and dissolved in PBS. Aerosol sensitization with 0.2% ovalbumin (Ova) for 10 minutes using Ultra-Neb 90 nebulizer (DeVilbiss, Somerset, Pa.). Ondansetron was administered by gavage in the dose of 120 μg/kg twice a day for 10 days.

C[C@@H]1C[C@H]2[C@@H]3CCC4=CC(=O)C=C[C@]4(C)[C@@]3(F)[C@@H](O)C[C@]2(C)[C@@]1(O)C(=O)CO [dexamethasone]
effect on early and late allergic response, dexamethasone versus ondansetron: comparable
